From patent publication US20190008804A1 (Repros Therapeutics Inc., priority 2016, published 2019)
Where two headings read alike, the source gives them in different places. At least one compound was matched to its structure with a doubt left.

Amino acid sequences for entries named in this document (tags omitted).
UniProt Q92731, whole entry: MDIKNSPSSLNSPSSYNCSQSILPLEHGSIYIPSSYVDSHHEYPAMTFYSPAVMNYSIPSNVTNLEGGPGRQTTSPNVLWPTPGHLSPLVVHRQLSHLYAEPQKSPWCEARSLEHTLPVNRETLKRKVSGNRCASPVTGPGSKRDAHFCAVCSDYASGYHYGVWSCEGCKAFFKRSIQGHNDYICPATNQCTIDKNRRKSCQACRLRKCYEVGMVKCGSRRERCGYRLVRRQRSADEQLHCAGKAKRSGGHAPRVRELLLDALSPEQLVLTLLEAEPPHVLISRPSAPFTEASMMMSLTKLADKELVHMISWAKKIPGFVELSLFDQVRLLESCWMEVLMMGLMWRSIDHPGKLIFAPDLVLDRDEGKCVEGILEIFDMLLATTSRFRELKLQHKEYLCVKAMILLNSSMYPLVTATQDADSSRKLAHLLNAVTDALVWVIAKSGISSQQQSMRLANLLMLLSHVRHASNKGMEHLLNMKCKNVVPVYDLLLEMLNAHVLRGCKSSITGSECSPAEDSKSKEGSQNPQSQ

Molecular target: ERβ (Homo sapiens, UniProt Q92731)
Assay: ERβ coactivator response
Format: biochemical
Conditions: read-out: ERβ Coactivator Response IC50/EC50

**Q.** For CCN(CC)CCOc1ccc(/C(=C(/Cl)c2ccccc2)c2ccc(O)cc2)cc1 [4-OH-enclomiphene, (E)-4-OH-Clomiphene], which IC50 (first of two separate studies) is on record?
**A.** The IC50 was 0.00053 µM.

**Q.** With CCNCCOc1ccc(/C(=C(/Cl)c2ccccc2)c2ccc(O)cc2)cc1 [4-OH-N-Desethyl enclomiphene, (E)-4-OH-desethyl Clomiphene] as the compound, how does the IC50 (second of two separate studies) read?
**A.** The IC50 was 0.0013 µM.

**Q.** How did the IC50 (second of two separate studies) turn out when CCNCCOc1ccc(/C(=C(/Cl)c2ccccc2)c2ccccc2)cc1 [N-Desethyl enclomiphene, (E)-desethyl Clomiphene] was run?
**A.** Its IC50 is 0.04 µM.

**Q.** CC[N+]([O-])(CC)CCOc1ccc(/C(=C(/Cl)c2ccccc2)c2ccccc2)cc1 [Enclomiphene-NO, (E)-Clomiphene-NO] was tested. Which IC50 (first of two separate studies) did it give?
**A.** The IC50 was 0.13 µM.
